Assay results taken from publication PMC13376213, “Systematic discovery of motif-based interactions of the auxiliary domains of USP family deubiquitinases” (Nature Communications, 2026).
Results are given in words; binding and its absence hold for the method and conditions named. Binding calls can cover weak binding; strength is not graded here.

Molecular target: T1, PARD3B peptide 171-186 (human)
T1 sequence (peptide): TQNLEDREVLNGVQTE
Assay: peptide or protein array; peptides synthesised on cellulose membrane (SPOT); GST-tagged domain in 5% skim milk in TBST overnight at 4 °C; HRP-conjugated anti-GST, chemiluminescence; both purified

binding: binds
Substance: USP20 zf-UBP domain, GST-tagged (human) (domain or fragment)
